The source of these data is article PMC4012723.

Amino acid sequences for entries named in this document (tags omitted). A change or cut given only in a name is not applied to a line headed by its entry.
UniProt Q9BXW9: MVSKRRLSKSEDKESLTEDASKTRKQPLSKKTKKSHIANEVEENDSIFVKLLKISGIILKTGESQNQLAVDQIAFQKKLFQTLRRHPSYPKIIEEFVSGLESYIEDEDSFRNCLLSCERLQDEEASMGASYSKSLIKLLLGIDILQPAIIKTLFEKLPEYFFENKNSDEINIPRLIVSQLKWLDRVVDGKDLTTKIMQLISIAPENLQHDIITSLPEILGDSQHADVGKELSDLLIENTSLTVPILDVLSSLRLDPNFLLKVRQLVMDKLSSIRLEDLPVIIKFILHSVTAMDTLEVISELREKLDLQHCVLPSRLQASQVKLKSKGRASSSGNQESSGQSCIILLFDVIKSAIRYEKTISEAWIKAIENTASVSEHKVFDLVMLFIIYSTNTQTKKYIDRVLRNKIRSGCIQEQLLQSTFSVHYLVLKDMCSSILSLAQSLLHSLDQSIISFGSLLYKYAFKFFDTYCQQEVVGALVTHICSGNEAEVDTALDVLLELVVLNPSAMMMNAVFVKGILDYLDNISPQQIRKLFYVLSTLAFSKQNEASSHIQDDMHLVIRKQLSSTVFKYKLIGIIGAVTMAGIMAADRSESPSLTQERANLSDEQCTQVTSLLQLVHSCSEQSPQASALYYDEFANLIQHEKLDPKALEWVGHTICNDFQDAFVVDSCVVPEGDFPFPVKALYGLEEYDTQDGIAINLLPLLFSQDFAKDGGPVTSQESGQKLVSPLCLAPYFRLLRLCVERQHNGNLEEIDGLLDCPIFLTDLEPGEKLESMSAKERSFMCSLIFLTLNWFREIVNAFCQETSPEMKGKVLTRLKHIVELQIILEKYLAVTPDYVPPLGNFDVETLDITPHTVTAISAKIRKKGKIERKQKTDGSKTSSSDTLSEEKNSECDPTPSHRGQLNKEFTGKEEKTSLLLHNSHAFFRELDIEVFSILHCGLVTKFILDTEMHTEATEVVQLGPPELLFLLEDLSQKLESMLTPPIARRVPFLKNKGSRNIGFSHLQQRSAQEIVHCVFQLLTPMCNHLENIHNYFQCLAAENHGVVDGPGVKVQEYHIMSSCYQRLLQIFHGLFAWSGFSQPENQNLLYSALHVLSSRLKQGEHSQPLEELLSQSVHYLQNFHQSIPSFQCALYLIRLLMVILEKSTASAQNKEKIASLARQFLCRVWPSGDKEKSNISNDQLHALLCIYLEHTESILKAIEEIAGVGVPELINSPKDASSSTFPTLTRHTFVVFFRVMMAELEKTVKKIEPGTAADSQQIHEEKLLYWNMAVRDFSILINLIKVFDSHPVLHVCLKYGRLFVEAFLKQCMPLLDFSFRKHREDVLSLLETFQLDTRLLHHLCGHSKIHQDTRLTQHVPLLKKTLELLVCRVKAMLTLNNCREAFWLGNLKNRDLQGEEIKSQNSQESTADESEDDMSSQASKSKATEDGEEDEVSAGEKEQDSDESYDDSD

The exact form of at least one protein or probe is not confirmed. The comparison behind a weaker result is the experiment's own reference, which may not be listed here.

The series deals with monoubiquitinated FANCD2 (ub-D2) (UniProt Q9BXW9). Description: EMSA. Particulars: 20 mM HEPES pH 7.9, 50 mM NaCl, 20% glycerol, 2 mM EDTA, 1 mM DTT, 0.1 mg/ml BSA, ~20 fmol DNA in 21 ul, 37 C 20 min; 6% native PAGE, 0.5x TBE; recombinant protein; label: 32P; probe letters rebuilt from the primers and the genome.
As for “AGCCAAGGTGCCTCTTTCAGCACAGACAGCAGAAGAGGCCTGTCTGCTCCTCCCGGAC (double strand) [B17 (GM-CSF origin)]”, the binding result is “binds more weakly”.

As for “CCCCAGGGAGTAGGTTGTGATGGGGGACCTATCCCAGGAAAACTCAGCAGGAAAGGACACTGGGCCTGCTGCTTGGTCTTTGGGCTTTTCTCAAATAACA (double strand) [B13 (non-origin)]”, the binding result is listed as “binds more weakly”.

On to “CTCCACCCCCAAGGAAAAAGGTCACTGGCTAGTGTAGCTAGTGTAAACAGGACCCAGGCGATGCATGGGACCCTGCC (double strand) [B48 (Lamin B2 origin)]”, for which the binding result is recorded as “binds”.

For “GTCTGACCTGCGGAGGTAGTTTGGGTGGCTACTTGGTGTTGGACTTGGCTAAATAAATACCAGAGGCAGATAAAACAAGCGAGGGGCCTAGGTCAAGAGTTCCAAGTTTGTTCCTCGATAAAAAACGACAAACGCGGTCGGGGGCGGTGATGCCCGCCTGCAGTCCCAACACTTTAGGAAGCTGAGGCGGGGGGATCGCAGGAGTTCGAGACCAGTCTGGGCAACATAATGAGACCATCCCCACCACCTCCCGTCCTTAATTTTTTTTAATAAAAAAAATCTTTAAGTGAGAAATGCATCTGTAATGTCCTTATTAACCAAAAACGCCTAAGGGATAAAGAAGCACACGCTCCCTAGCCAACGCTAGAGGAACACACCCCGAGAGCTGGTGCTGTAGGACCCAGTTTTCCCGCGAAAACGCTGCCGCGCAGGGGGTCAGACCATCTGGACCAAGGGGGGCCGAGCGAGGCCTACTTCTGGTTT (double strand) [MCM4 origin]”, the binding result is listed as “binds more weakly”.
